Amino acid sequences for entries named in this document (tags omitted). A change or cut given only in a name is not applied to a line headed by its entry.
UniProt P08603: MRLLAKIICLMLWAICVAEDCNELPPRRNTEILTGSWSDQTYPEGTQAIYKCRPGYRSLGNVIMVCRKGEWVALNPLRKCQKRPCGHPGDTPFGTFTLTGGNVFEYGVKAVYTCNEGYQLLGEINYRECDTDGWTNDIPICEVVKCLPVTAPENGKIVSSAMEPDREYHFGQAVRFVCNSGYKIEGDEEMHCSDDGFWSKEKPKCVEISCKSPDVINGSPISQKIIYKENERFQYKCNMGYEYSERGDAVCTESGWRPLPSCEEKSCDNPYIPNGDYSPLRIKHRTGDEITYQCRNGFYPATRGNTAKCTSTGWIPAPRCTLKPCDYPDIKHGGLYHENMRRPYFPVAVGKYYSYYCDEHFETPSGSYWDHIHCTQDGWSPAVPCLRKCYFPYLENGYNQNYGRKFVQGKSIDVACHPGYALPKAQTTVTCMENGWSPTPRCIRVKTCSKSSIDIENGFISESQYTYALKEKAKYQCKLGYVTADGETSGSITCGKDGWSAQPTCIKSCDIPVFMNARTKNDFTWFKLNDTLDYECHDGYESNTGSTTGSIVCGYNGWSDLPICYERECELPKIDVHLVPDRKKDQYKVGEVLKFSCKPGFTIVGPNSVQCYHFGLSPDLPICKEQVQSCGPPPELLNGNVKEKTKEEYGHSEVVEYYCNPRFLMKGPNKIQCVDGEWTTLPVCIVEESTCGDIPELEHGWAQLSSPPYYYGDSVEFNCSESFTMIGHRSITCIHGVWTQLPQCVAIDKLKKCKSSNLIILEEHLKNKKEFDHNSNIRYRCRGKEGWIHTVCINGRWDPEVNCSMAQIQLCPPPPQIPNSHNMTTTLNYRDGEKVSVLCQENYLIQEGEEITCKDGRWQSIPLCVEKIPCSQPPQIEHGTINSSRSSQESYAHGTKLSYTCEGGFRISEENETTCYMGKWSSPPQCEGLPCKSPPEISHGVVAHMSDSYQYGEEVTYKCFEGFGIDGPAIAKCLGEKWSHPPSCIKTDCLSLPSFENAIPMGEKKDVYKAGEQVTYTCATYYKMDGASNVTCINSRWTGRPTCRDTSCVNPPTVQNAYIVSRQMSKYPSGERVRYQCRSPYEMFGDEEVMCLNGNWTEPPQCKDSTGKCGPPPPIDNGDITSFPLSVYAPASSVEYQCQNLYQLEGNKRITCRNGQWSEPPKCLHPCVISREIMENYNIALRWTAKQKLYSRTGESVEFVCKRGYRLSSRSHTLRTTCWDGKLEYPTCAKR

Results are given in words; binding and its absence hold for the method and conditions named. Some results given as binding are weak or reduced against the parent protein; the word gives no strength. Where a sequence is shown, tags or fusion partners need not be part of it.
What follows are substances tested against T1, sPspCN (N-terminally hexaHis-SUMO-tagged PspC residues 37-140, S. pneumoniae strain D39) (Streptococcus pneumoniae (strain D39)) (assay: SPR, immobilised sPspCN, 50 nM analyte (concentration from the legend)).
T1 sequence: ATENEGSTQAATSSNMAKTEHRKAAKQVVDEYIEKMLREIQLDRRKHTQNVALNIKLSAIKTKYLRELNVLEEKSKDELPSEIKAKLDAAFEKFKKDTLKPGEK
“CFH 19-20 (recombinant fragment, CCPs 19-20 of human CFH) (from UniProt P08603 1107-1231)” was tested, and the binding was “binds”.
“CFH 8-9 (recombinant fragment, CCPs 8-9 of human CFH) (from UniProt P08603 446-566)” was tested, and the binding was “binds”.
“CFH 8-15 (recombinant fragment, CCPs 8-15 of human CFH) (from UniProt P08603 446-928)” was tested, and the binding was “binds”.

— patent US20190100563A1 (UNIVERSITY COURT OF THE UNIVERSITY OF EDINBURGH, published 2019)
